# Record: PubChem BioAssay AID686938 (Drosophila RNAi Screening Center, 2013)
# Assay: 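Looking for CRAC channel components and the factors controlling them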 (primary screen)
# Cell system: Drosophila S2R+ cells
# Knock-down reagent: long dsRNA against Drosophila genes, about 0.25 µg dsRNA per well, roughly 10,000 cells
# Timing: 5 days of knock-down before the calcium assay
# Challenge: thapsigargin (SERCA pump blocker) to empty calcium stores; entry signal taken 4 min after adding it
# Read-out: 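Per-well fluo-4 fluorescence in two replicates, unnormalised, measured in resting cells and 4 min after store depletion by the SERCA blocker thapsigargin; ratio of the two present in few wells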
# Direction: calcium entry signal: higher = stronger calcium signal after store depletion; entry to resting ratio: higher = more calcium entry relative to resting level; resting calcium signal: higher = higher resting calcium signal
# Rule for the call: 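Called when the plate z-score of the entry-to-rest ratio, mean of duplicates, falls below −3; wells with low overall dye signal (Fmax z below −2) or more than five off-targets excluded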
# Meaning of the calls: active = strongly reduced calcium entry; inactive = no strong reduction
# The screen tested about 23,000 reagents; below is a random part of those that have a named target and a result. Of all reagents, 75 (0.33%) were called active. 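Raw plate signals without normalisation; calls rest on plate z-scores that were not deposited; ratio present for only 364 wells.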 Names joined by + are all predicted targets of the reagent. Not stated in the record: the dose of the treatment.
Target gene,dsRNA,"calcium entry signal, replicate 1 (fluorescence units)","calcium entry signal, replicate 2 (fluorescence units)",entry to resting ratio,"resting calcium signal, replicate 1 (fluorescence units)","resting calcium signal, replicate 2 (fluorescence units)",activity call
CG33160 (GeneID 326265),DRSC08197,2.64e7,3.33e7,,1.34e7,1.58e7,inactive
Srx (GeneID 32768),DRSC20005,3.29e7,3.70e7,,1.70e7,1.66e7,inactive
CG43327 + CG43328,DRSC05640,3.13e7,3.51e7,,1.42e7,1.75e7,inactive
CG33981 + fab1,DRSC07412,3.42e7,3.34e7,,1.62e7,1.67e7,inactive
CG32040 (GeneID 317835),DRSC08981,4.71e7,3.98e7,,2.60e7,1.87e7,inactive
CG32040 (GeneID 317835),DRSC22459,3.54e7,3.49e7,,2.00e7,1.71e7,inactive
Cap-D3 (GeneID 33778),DRSC02349,2.02e7,2.32e7,,1.11e7,9.89e6,inactive
CG5913 (GeneID 43132),DRSC15916,3.27e7,5.14e7,,1.71e7,2.22e7,inactive
CG43312 (GeneID 12798458),DRSC11559,3.32e7,2.97e7,,1.68e7,1.46e7,inactive
CG33341 (GeneID 2768683),DRSC22887,4.19e7,3.99e7,,2.52e7,1.84e7,inactive
mtSSB (GeneID 41968),DRSC17005,3.48e7,5.29e7,,1.72e7,6.12e7,inactive
CG13557 (GeneID 37717),DRSC04195,4.18e7,4.82e7,,2.02e7,2.23e7,inactive
CG31368 (GeneID 41437),DRSC14949,4.03e7,3.50e7,,1.86e7,1.79e7,inactive
CG31368 (GeneID 41437),DRSC14951,2.96e7,3.37e7,,1.32e7,1.58e7,inactive
lncRNA:CR43337 (GeneID 12798544),DRSC07893,4.48e7,4.12e7,,2.41e7,2.01e7,inactive
eIF3i (GeneID 33710),DRSC03464,1.03e7,,,7.01e6,,inactive
CG4586 (GeneID 31641),DRSC18373,4.29e7,4.52e7,,2.00e7,2.08e7,inactive
sle (GeneID 41262),DRSC14557,3.16e7,4.13e7,,1.47e7,1.99e7,inactive
dpr2 (GeneID 3346227),DRSC02370,2.98e7,3.45e7,,1.50e7,1.51e7,inactive
dpr2 (GeneID 3346227),DRSC02371,3.14e7,3.26e7,,1.52e7,1.51e7,inactive
Tig (GeneID 33896),DRSC03456,2.20e7,2.01e7,,1.23e7,1.03e7,inactive
Atat (GeneID 39086),DRSC10392,5.61e7,4.10e7,,3.60e7,1.73e7,inactive
Spn28Db (GeneID 326261),DRSC22033,3.16e7,5.67e7,,1.41e7,2.55e7,inactive
Pos (GeneID 43762),DRSC15415,3.30e7,4.68e7,2.1,1.56e7,1.87e7,inactive

4 entries from above in another layout:
{"Target gene":"sle (GeneID 41262)","dsRNA":"DRSC14557","calcium entry signal, replicate 1 (fluorescence units)":3.16e7,"calcium entry signal, replicate 2 (fluorescence units)":4.13e7,"resting calcium signal, replicate 1 (fluorescence units)":1.47e7,"resting calcium signal, replicate 2 (fluorescence units)":1.99e7,"activity call":"inactive"}
{"Target gene":"dpr2 (GeneID 3346227)","dsRNA":"DRSC02370","calcium entry signal, replicate 1 (fluorescence units)":2.98e7,"calcium entry signal, replicate 2 (fluorescence units)":3.45e7,"resting calcium signal, replicate 1 (fluorescence units)":1.50e7,"resting calcium signal, replicate 2 (fluorescence units)":1.51e7,"activity call":"inactive"}
{"Target gene":"dpr2 (GeneID 3346227)","dsRNA":"DRSC02371","calcium entry signal, replicate 1 (fluorescence units)":3.14e7,"calcium entry signal, replicate 2 (fluorescence units)":3.26e7,"resting calcium signal, replicate 1 (fluorescence units)":1.52e7,"resting calcium signal, replicate 2 (fluorescence units)":1.51e7,"activity call":"inactive"}
{"Target gene":"Tig (GeneID 33896)","dsRNA":"DRSC03456","calcium entry signal, replicate 1 (fluorescence units)":2.20e7,"calcium entry signal, replicate 2 (fluorescence units)":2.01e7,"resting calcium signal, replicate 1 (fluorescence units)":1.23e7,"resting calcium signal, replicate 2 (fluorescence units)":1.03e7,"activity call":"inactive"}

More records follow.
Target gene,dsRNA,"calcium entry signal, replicate 1 (fluorescence units)","calcium entry signal, replicate 2 (fluorescence units)",entry to resting ratio,"resting calcium signal, replicate 1 (fluorescence units)","resting calcium signal, replicate 2 (fluorescence units)",activity call
CG8671 (GeneID 35400),DRSC03102,4.09e7,5.08e7,,2.10e7,2.29e7,inactive
CG8671 (GeneID 35400),DRSC03103,3.77e7,5.36e7,,1.90e7,2.40e7,inactive
dhd (GeneID 31444),DRSC18761,2.17e7,3.36e7,,1.12e7,1.48e7,inactive
Tpst (GeneID 32312),DRSC18989,1.67e7,3.18e7,,9.18e6,1.29e7,inactive
Tpst (GeneID 32312),DRSC19696,4.30e7,3.83e7,,1.96e7,1.63e7,inactive
Tpst (GeneID 32312),DRSC19723,3.78e7,4.13e7,,2.00e7,2.08e7,inactive
Tpst (GeneID 32312),DRSC19724,2.87e7,5.32e7,,1.67e7,2.66e7,inactive
Tpst (GeneID 32312),DRSC22621,4.04e7,2.93e7,,2.31e7,1.54e7,inactive
CG30395 (GeneID 246589),DRSC03896,2.06e7,3.55e7,,9.22e6,1.38e7,inactive
BEAF-32 + CG42254 (retired record),DRSC05503,2.81e7,2.92e7,,1.24e7,1.28e7,inactive
mRpL23 (GeneID 38302),DRSC08307,4.09e7,4.18e7,,1.90e7,1.78e7,inactive
TwdlP (GeneID 43201),DRSC14734,1.93e7,3.86e7,,1.09e7,1.71e7,inactive
CG9132 (GeneID 2768881),DRSC20159,5.07e7,4.50e7,,2.20e7,1.72e7,inactive
PGRP-LE (GeneID 32534),DRSC20137,4.31e7,4.30e7,,1.74e7,2.01e7,inactive
AgmNAT (GeneID 31512),DRSC18072,2.57e7,3.55e7,,1.40e7,1.67e7,inactive
e(y)2 (GeneID 45848),DRSC19640,3.09e7,4.15e7,,1.43e7,1.91e7,inactive
CG16926 (GeneID 50205),DRSC06637,2.88e7,3.00e7,,1.35e7,1.48e7,inactive
CG31272 (GeneID 326130),DRSC16058,3.52e7,3.81e7,,1.79e7,2.04e7,inactive
PhKgamma (GeneID 32120),DRSC20268,3.40e7,3.80e7,,1.58e7,1.79e7,inactive
CG6688 (GeneID 42716),DRSC16094,5.20e7,5.16e7,,2.48e7,2.07e7,inactive
Pig1 (GeneID 31303),DRSC18698,3.45e7,5.52e7,2,1.72e7,2.65e7,inactive
Kmn1 (GeneID 32102),DRSC19666,2.52e7,3.19e7,,1.34e7,1.86e7,inactive
Cluap1 (GeneID 33142),DRSC20637,5.20e7,3.51e7,,2.41e7,1.77e7,inactive
CG34462 (GeneID 5740319),DRSC10768,2.50e7,5.52e7,,1.20e7,2.33e7,inactive
PIG-H + Kmn2,DRSC12653,2.48e7,3.24e7,,1.41e7,1.54e7,inactive
Cad96Ca (GeneID 43026),DRSC14220,4.38e7,6.27e7,,2.33e7,2.79e7,inactive
Cad96Ca (GeneID 43026),DRSC16693,4.27e7,6.90e7,,2.15e7,2.84e7,inactive
side (GeneID 43300),DRSC14523,3.38e7,4.85e7,,1.81e7,2.52e7,inactive
side (GeneID 43300),DRSC14716,3.66e7,5.44e7,,1.85e7,2.31e7,inactive
side (GeneID 43300),DRSC14717,3.91e7,5.52e7,,1.86e7,2.30e7,inactive
side (GeneID 43300),DRSC14718,3.58e7,5.50e7,,1.69e7,2.16e7,inactive
side (GeneID 43300),DRSC14721,3.24e7,5.59e7,,1.67e7,2.42e7,inactive
Pdha (GeneID 31406),DRSC18413,3.42e7,5.18e7,,1.71e7,2.22e7,inactive
IleRS-m (GeneID 39762),DRSC10506,3.33e7,5.33e7,,1.68e7,2.13e7,inactive
